These are yes or no findings as the source states them, for the method shown. For part of these data: Binding seen in cells or lysates may run through a third protein. Some entries that bind do so weakly or less than the wild type. Tags and fused reporters may be left off the sequences shown.
T1: KORRIGAN1 (KOR1), complete protein (AA 1 to 621), MbYTH fusion (Arabidopsis thaliana) (UniProt Q38890)
T1 sequence: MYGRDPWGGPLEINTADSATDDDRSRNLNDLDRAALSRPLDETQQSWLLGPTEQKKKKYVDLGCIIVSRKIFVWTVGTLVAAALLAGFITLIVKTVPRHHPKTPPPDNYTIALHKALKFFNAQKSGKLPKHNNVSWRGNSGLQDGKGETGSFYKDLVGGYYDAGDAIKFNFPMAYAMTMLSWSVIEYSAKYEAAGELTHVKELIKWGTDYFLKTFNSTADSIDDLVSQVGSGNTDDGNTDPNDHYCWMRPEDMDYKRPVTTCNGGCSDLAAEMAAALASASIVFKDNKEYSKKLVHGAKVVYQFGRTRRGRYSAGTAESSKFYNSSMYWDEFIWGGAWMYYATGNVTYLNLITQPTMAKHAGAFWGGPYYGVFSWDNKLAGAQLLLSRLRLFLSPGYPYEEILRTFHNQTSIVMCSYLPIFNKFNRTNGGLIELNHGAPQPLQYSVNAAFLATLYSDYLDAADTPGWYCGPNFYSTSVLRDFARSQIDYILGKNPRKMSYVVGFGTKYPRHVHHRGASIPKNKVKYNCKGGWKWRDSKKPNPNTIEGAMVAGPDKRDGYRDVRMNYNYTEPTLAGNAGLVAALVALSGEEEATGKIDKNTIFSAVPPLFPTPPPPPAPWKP

T2: KOR1TMD, only the transmembrane domain of KOR1 (AA 70 to 94), MbYTH fusion (Arabidopsis thaliana) (UniProt Q38890)
T2 sequence: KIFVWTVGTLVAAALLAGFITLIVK

T3: KOR1C (AA 70 to 621), split-YFP (BiFC) fusion (Arabidopsis thaliana) (UniProt Q38890)
T3 sequence: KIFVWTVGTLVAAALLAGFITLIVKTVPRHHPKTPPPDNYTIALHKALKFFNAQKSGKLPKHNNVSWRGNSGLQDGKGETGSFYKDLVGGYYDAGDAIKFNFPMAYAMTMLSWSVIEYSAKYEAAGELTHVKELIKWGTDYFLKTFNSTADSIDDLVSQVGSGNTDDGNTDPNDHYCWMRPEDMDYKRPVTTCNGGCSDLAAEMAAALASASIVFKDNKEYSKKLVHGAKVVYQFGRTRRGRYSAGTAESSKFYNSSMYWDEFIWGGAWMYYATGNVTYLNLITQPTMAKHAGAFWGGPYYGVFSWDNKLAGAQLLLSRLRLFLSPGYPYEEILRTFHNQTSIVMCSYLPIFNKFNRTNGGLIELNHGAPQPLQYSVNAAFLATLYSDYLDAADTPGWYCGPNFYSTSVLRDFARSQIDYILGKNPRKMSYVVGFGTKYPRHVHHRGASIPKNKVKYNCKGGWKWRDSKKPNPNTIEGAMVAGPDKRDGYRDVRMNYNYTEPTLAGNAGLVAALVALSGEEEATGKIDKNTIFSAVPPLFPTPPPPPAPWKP

B1: KORRIGAN1 (KOR1), complete protein (AA 1 to 621), MbYTH fusion (protein, UniProt Q38890 1-621)
chain: T1 sequence
B2: KOR1N (AA 1 to 94), split-YFP (BiFC) fusion (domain or fragment, UniProt Q38890 1-94)
chain: MYGRDPWGGPLEINTADSATDDDRSRNLNDLDRAALSRPLDETQQSWLLGPTEQKKKKYVDLGCIIVSRKIFVWTVGTLVAAALLAGFITLIVK
B3: KOR1C (AA 70 to 621), split-YFP (BiFC) fusion (domain or fragment, UniProt Q38890 70-621)
chain: T3 sequence
B4: KOR1NOTMD, KOR1 without the transmembrane domain (AA 1 to 69+95 to 621), MbYTH prey (domain or fragment, UniProt Q38890)
chain: MYGRDPWGGPLEINTADSATDDDRSRNLNDLDRAALSRPLDETQQSWLLGPTEQKKKKYVDLGCIIVSRTVPRHHPKTPPPDNYTIALHKALKFFNAQKSGKLPKHNNVSWRGNSGLQDGKGETGSFYKDLVGGYYDAGDAIKFNFPMAYAMTMLSWSVIEYSAKYEAAGELTHVKELIKWGTDYFLKTFNSTADSIDDLVSQVGSGNTDDGNTDPNDHYCWMRPEDMDYKRPVTTCNGGCSDLAAEMAAALASASIVFKDNKEYSKKLVHGAKVVYQFGRTRRGRYSAGTAESSKFYNSSMYWDEFIWGGAWMYYATGNVTYLNLITQPTMAKHAGAFWGGPYYGVFSWDNKLAGAQLLLSRLRLFLSPGYPYEEILRTFHNQTSIVMCSYLPIFNKFNRTNGGLIELNHGAPQPLQYSVNAAFLATLYSDYLDAADTPGWYCGPNFYSTSVLRDFARSQIDYILGKNPRKMSYVVGFGTKYPRHVHHRGASIPKNKVKYNCKGGWKWRDSKKPNPNTIEGAMVAGPDKRDGYRDVRMNYNYTEPTLAGNAGLVAALVALSGEEEATGKIDKNTIFSAVPPLFPTPPPPPAPWKP

Tests used:
[1] = target: T1, KORRIGAN1 (KOR1), complete protein (AA 1 to 621), MbYTH fusion (Arabidopsis thaliana); assay: two-hybrid; split-ubiquitin membrane-based yeast two-hybrid (MbYTH) in S. cerevisiae NMY51; bait fused to Cub-TF, prey to NubG; 100 colonies of each combination spotted on selective medium with 3-AT, 30°C, three days, grown spots counted; called 'in vitro' by the paper
[2] = target: T2, KOR1TMD, only the transmembrane domain of KOR1 (AA 70 to 94), MbYTH fusion (Arabidopsis thaliana); assay: as above
[3] = target: T3, KOR1C (AA 70 to 621), split-YFP (BiFC) fusion (Arabidopsis thaliana); assay: split reporter; BiFC: Y/N and Y/C fragments of YFP each linked to the N-terminus of the proteins, transiently expressed in leaves of 3-week-old N. benthamiana; YFP fluorescence by confocal microscopy 3 days after infiltration
[4] = target: KOR1N (AA 1 to 94), split-YFP (BiFC) fusion (Arabidopsis thaliana) (UniProt Q38890); assay: as above

| Binder | binding [2] | binding [3] | other results |
| --- | --- | --- | --- |
| B1 |  |  | binding [1]: binds |
| KIFVWTVGTLVAAALLAGFITLIVK (domain or fragment, UniProt Q38890 70-94) [KOR1TMD, only the transmembrane domain of KOR1 (AA 70 to 94), MbYTH fusion] | binds |  |  |
| B2 |  | binds weakly | binding [4]: binds |
| B3 |  | binds |  |
| B4 | no binding |  |  |

Source: article PMC4226561
